Part of at least one peptide drawing is inferred or uncertain, most often the ends. Bridge positions count the residues as written; N and C are the ends. Square brackets hold non-standard residues; d marks the D form. Peptide text beside a SMILES is read from it. I, II: the chains in the order shown.
Target: T1, mouse kappa opioid receptor (mKOR) (Mus musculus, UniProt P33534)
T1 construct: a mouse thymoma cell line that expresses only the kappa-opioid receptor and no other opioid receptor subtype; host or cells: R1.G1 mouse thymoma cells
Test: Inhibition of forskolin-stimulated cAMP production in R1.G1 cells (TR-FRET cAMP immunoassay)
Format: cell-based
Conditions: read-out: mKOR EC50

The chains behind the UniProt entries cited, without tags or fusion partners. Where a name states a change or a piece, a line headed by the entry shows the natural chain unless it says otherwise.
UniProt P33534: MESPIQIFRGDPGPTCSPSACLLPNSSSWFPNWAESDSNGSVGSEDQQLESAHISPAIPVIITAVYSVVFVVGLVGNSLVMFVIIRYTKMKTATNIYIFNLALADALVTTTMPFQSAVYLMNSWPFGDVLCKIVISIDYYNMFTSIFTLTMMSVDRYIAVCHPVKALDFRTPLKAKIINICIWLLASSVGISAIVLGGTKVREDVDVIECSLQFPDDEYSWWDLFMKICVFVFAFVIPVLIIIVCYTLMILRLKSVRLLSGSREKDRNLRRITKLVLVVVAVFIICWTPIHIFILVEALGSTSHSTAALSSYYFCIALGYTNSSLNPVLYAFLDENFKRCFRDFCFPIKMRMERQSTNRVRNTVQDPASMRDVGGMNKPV

SMILES: CC(C)C[C@@H](NC(=O)[C@@H](Cc1ccccc1)NC(=O)[C@H](N)Cc1ccccc1)C(=O)N[C@@H]1CCCCNC(=O)CNC(=O)[C@H](NC(=O)[C@@H](CC(C)C)NC(=O)[C@@H](Cc2ccccc2)NC(=O)[C@H](N)Cc2ccccc2)CCCCNC(=O)CNC1=O [Compound 52, D-Phe-D-Phe-D-Leu-(D-Lys-GlyLactam)2-D-Leu-D-Phe-D-Phe] (I: H-[dF][dF][dL][dK]G / II: H-[dF][dF][dL][dK]G; amide I:4-II:C, I:C-II:4 (inferred); N-terminus assumed)
- EC50: 13.8 nM

Reference: patent US20140357579A1, “SYNTHETIC PEPTIDE AMIDES AND DIMERS THEREOF” (priority 2006, published 2014)
